Measured values from publication PMC10281262.
These are yes or no findings as the source states them, for the method shown. Some results given as binding are weak or reduced against the parent protein; the word gives no strength. For some of these results: Sequences can lack the tags named with a protein. One block for each binder: values may come before it.

Experiments:
Test in all cases: co-purification (affinity and ion exchange chromatography); four septins co-expressed in E. coli; purified together by nickel-histidine and streptavidin-biotin affinities and ion exchange chromatography; kept in 300 mM KCl, 50 mM Tris, pH 8; SDS-PAGE in Fig. S7A
[1] = target: T1, SEPT9_i1 (SEPTIN9 isoform 1) (human) (UniProt Q9UHD8)
T1 sequence: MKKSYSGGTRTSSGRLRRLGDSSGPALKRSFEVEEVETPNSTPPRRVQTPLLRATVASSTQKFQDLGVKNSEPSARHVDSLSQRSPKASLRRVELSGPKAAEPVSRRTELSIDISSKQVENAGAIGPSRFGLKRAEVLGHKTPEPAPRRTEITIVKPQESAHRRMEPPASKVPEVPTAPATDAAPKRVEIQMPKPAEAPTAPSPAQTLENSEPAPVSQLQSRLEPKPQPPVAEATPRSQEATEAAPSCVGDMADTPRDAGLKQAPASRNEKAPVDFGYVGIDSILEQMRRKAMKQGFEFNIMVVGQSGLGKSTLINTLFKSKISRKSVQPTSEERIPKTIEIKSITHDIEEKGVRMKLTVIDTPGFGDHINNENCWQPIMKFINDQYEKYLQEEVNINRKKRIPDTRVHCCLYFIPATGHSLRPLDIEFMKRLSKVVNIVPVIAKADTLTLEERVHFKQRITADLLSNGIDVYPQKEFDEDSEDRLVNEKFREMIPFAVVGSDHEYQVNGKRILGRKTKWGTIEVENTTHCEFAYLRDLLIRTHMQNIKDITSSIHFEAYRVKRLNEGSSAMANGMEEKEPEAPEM

SEPT6 (human) = target: T2, SEPT6 (human) (UniProt Q14141)
T2 sequence: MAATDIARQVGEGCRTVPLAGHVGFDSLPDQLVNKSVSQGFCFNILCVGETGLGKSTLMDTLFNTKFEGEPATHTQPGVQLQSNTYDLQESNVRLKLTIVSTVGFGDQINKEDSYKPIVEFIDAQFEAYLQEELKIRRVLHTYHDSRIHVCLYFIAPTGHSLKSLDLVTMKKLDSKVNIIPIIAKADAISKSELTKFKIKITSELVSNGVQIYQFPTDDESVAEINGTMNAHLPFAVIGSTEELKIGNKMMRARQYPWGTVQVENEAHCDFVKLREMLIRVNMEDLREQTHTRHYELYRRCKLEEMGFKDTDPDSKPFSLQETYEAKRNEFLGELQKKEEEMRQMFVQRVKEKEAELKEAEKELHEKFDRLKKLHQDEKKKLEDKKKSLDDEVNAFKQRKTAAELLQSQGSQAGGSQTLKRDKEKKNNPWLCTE

SEPT7 (human) = target: T3, SEPT7 (human) (UniProt Q16181)
T3 sequence: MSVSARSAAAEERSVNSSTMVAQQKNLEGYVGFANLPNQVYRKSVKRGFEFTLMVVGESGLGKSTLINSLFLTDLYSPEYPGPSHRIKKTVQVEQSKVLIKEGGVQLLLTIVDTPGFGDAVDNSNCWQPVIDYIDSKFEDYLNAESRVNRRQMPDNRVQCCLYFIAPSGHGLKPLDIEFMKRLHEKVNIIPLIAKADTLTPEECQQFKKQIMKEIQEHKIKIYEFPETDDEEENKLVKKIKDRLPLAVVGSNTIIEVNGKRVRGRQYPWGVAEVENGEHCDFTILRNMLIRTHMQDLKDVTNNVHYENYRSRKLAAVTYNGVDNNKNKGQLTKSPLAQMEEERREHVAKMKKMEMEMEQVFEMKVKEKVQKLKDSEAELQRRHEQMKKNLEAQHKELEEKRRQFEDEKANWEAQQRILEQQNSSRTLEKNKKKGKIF

[2] = target: T4, SEPT9_i1 (SEPTIN9 isoform 1) (human), Q9UHD8; conditions: remark: other sources report otherwise
T4 chain: T1 sequence

binding [1]: binds
B1: SEPT7 (protein, UniProt Q16181 1-437)
chain: T3 sequence

binding (SEPT6 (human)): binds
B2: SEPT2–GFP (protein, UniProt Q15019 1-361)
chain: MSKQQPTQFINPETPGYVGFANLPNQVHRKSVKKGFEFTLMVVGESGLGKSTLINSLFLTDLYPERVIPGAAEKIERTVQIEASTVEIEERGVKLRLTVVDTPGYGDAINCRDCFKTIISYIDEQFERYLHDESGLNRRHIIDNRVHCCFYFISPFGHGLKPLDVAFMKAIHNKVNIVPVIAKADTLTLKERERLKKRILDEIEEHNIKIYHLPDAESDEDEDFKEQTRLLKASIPFSVVGSNQLIEAKGKKVRGRLYPWGVVEVENPEHNDFLKLRTMLITHMQDLQEVTQDLHYENFRSERLKRGGRKVENEDMNKDQILLEKEAELRRMQEMIARMQAQMQMQMQGGDGDGGALGHHV

binding (SEPT7 (human)): binds
B3: SEPT6 (protein, UniProt Q14141 1-434)
chain: T2 sequence

binding [2]: binds
B4: SEPT9_i1 (SEPTIN9 isoform 1), Q9UHD8 1-586 (protein)
chain: T1 sequence
